This note sets out measurements from PubChem BioAssay AID330 (DTP/NCI, 2004).

This assay deals with P388 leukemia ip, CD2F1 mice, survival T/C. Kind of assay: NCI In Vivo Anticancer Drug Screen. Data for tumor model P388 Leukemia (intraperitoneal) in CD2F1 (CDF1) mice. The note with it: T/C endpoint: median survival time, higher T/C = longer survival.
Setting [1] is: dose: 120.0 mg/kg/injection, schedule: Q01DX005 (ip), vehicle: saline with Tween-80.
The mark [2] stands for this setting: dose: 240.0 mg/kg/injection, schedule: Q01DX005 (ip), vehicle: saline with Tween-80.
The mark [3] stands for this setting: dose: 100.0 mg/kg/injection, schedule: Q01DX009 (ip), vehicle: Klucel (hydroxypropylcellulose) (HPC).
[4] abbreviates: dose: 200.0 mg/kg/injection, schedule: Q01DX005 (ip), vehicle: Klucel (hydroxypropylcellulose) (HPC).
Where [5] appears, read: dose: 50.0 mg/kg/injection, schedule: Q01DX005 (ip), vehicle: Klucel (hydroxypropylcellulose) (HPC).
Where [6] appears, read: dose: 100.0 mg/kg/injection, schedule: Q01DX005 (ip), vehicle: Klucel (hydroxypropylcellulose) (HPC).
Setting [7] is: dose: 100.0 mg/kg/injection, schedule: Q01DX009 (ip), vehicle: saline with Tween-80.
Setting [8] is: dose: 200.0 mg/kg/injection, schedule: Q01DX009 (ip), vehicle: saline with Tween-80.
Setting [9] is: dose: 25.0 mg/kg/injection, schedule: Q01DX009 (ip), vehicle: saline.

The list does not hold the whole screen: it is rich in T/C values a quarter to a half above the control, in often repeated tests (any T/C) and in doses without a T/C. Other doses and runs of a compound stand elsewhere. T/C: endpoint of the treated group in % of that of the vehicle group. Some doses have a count of surviving animals in place of a T/C: the source holds a T/C of zero for them, seemingly a mark for toxic or unscored doses. Some survivor counts are full or nearly so, which does not show that the dose was tolerated: survival well below the control is almost never listed, so the zero probably covers shortened survival too. Survivors were counted at the toxicity check, usually on the fifth day, unless a day is given; later deaths do not show. Schedules are NCI's codes, read here as Q, the interval in days (D) or hours (H), X, the number of doses. Some entries hold several experiments; the results are listed from low to high. For survival time, the PubChem record calls one and a half times the control and up active, and a quarter to a half above the control has no call in these data; cut-offs in other NCI protocols can differ. Some T/C values are followed by the survivors on the day toxicity was checked, most often the fifth; where none is given, no animal had died by that day. Brackets with × say how often a value occurs here.

For the compound `CN1C(NC(=O)C(C)(C)O)C(C)(C)C(C)(C)C1NC(=O)C(C)(C)O` (stereo unspecified), the T/C was 131 % of control (dose: 60.0 mg/kg/injection, schedule: Q01DX005 (ip), vehicle: saline with Tween-80); 132 % of control under setting [1]; 139 % of control under setting [2].

For the compound `O=NN(CCCl)C(=O)Nc1ccc(Br)cn1`, the T/C runs as follows: (dose: 50.0 mg/kg/injection, schedule: Q01DX009 (ip), vehicle: saline with Tween-80) 130 % of control; (dose: 109.0 mg/kg/injection, schedule: Q01DX009 (ip), vehicle: saline with Tween-80) 127 % of control; (dose: 165.0 mg/kg/injection, schedule: Q01DX009 (ip), vehicle: saline with Tween-80) 127 % of control. For the same compound, the survivor count (dose: 250.0 mg/kg/injection, schedule: Q01DX009 (ip), vehicle: saline with Tween-80) is recorded as 0 of 6.

With `C=C1C(=O)OC2C(OC(C)=O)C(C(=O)OC)CC(O)C/C(CO)=C\C(OC(=O)/C(C)=C/C)C12` (stereo unspecified), the survivor count (dose: 32.0 mg/kg/injection, schedule: Q01DX009 (ip), vehicle: Klucel (hydroxypropylcellulose) (HPC)) is 2 of 6.

As to `CCn1c(=O)c2[nH]c(Cl)nc2n(C)c1=O`, the survivor count under setting [3] is given as 3 of 6.

Regarding `CC(C)(C)N1C(=O)C(c2ccccc2)(c2ccccc2)C1/C=C/c1ccccc1` (stereo unspecified), under setting [4], the survivor count was 5 of 6.

`CON=C1C(C)(C)C(=NOC)C1(C)C`: the survivor count under setting [5] is 1 of 6, the survivor count under setting [6] is 3 of 6 and the survivor count under setting [4] is given as 0 of 6.

As for `CCC(C)NCC/C(=C\[Si](C)(C)C)c1ccccc1` (stereo unspecified), the survivor count (dose: 400.0 mg/kg/injection, schedule: Q01DX001 (ip), vehicle: saline with Tween-80) is 3 of 6.

On to `c1cc[n+]2cc3c(ccc4cc5cccc[n+]5cc43)cc2c1`, for which the survivor count is reported as 0 of 5 (dose: 50.0 mg/kg/injection, schedule: Q01DX005 (ip), vehicle: saline with Tween-80); 0 of 5 (dose: 100.0 mg/kg/injection, schedule: Q01DX005 (ip), vehicle: saline with Tween-80); 0 of 5 (dose: 200.0 mg/kg/injection, schedule: Q01DX005 (ip), vehicle: saline with Tween-80).

With `COc1cc(Br)c(C(=O)N2CCc3cc([N+](=O)[O-])ccc32)cc1OC`, under “dose: 400.0 mg/kg/injection, schedule: Q01DX009 (ip), vehicle: other”, the survivor count is recorded as 4 of 6.

In the case of `N=c1oc(-c2ccccc2)cc2ccccc12`, the survivor count reads like this: under setting [5], 3 of 5; under setting [6], 2 of 5; under setting [4], 0 of 5.

Regarding `CN(C)CCN1C(=O)c2cccc3cc(N)cc(c23)C1=O`, the T/C is, setting by setting: (dose: 2.0 mg/kg/injection, schedule: Q01DX009 (ip), vehicle: saline with Tween-80) 135 % of control; (dose: 4.0 mg/kg/injection, schedule: Q01DX009 (ip), vehicle: saline with Tween-80) 137 and 142 % of control [5 of 6 alive]; (dose: 7.0 mg/kg/injection, schedule: Q01DX009 (ip), vehicle: saline with Tween-80, evaluated on day 30) 131 and 134 % of control; (dose: 7.0 mg/kg/injection, schedule: Q01DX009 (ip), vehicle: saline with Tween-80, evaluated on day 45) 131, 141, 144, 152 % of control; (dose: 7.0 mg/kg/injection, schedule: Q01DX009 (ip), vehicle: saline with Tween-80, evaluated on day 60) 128, 130, 131, 139, 141, 144 % of control; (dose: 8.0 mg/kg/injection, schedule: Q01DX009 (ip), vehicle: saline with Tween-80) 144 and 149 % of control [9 of 10 alive]. For the same compound, the T/C was 151 (2×) and 157 % of control (dose: 11.0 mg/kg/injection, schedule: Q01DX009 (ip), vehicle: saline with Tween-80, evaluated on day 30); 146, 163, 166, 177 % of control (dose: 11.0 mg/kg/injection, schedule: Q01DX009 (ip), vehicle: saline with Tween-80, evaluated on day 45); 143, 145 (2×), 152, 161, 176 % of control (dose: 11.0 mg/kg/injection, schedule: Q01DX009 (ip), vehicle: saline with Tween-80, evaluated on day 60); 132, 177, 183, 186, 188, 199 % of control (dose: 16.0 mg/kg/injection, schedule: Q01DX009 (ip), vehicle: saline with Tween-80, evaluated on day 30); 186, 209, 211, 214 % of control (dose: 16.0 mg/kg/injection, schedule: Q01DX009 (ip), vehicle: saline with Tween-80, evaluated on day 45); 171, 177, 181, 194, 195, 200 % of control (dose: 16.0 mg/kg/injection, schedule: Q01DX009 (ip), vehicle: saline with Tween-80, evaluated on day 60). Further, the T/C (dose: 24.0 mg/kg/injection, schedule: Q01DX009 (ip), vehicle: saline with Tween-80, evaluated on day 30) is 114, 128, 242 % of control; the T/C (dose: 24.0 mg/kg/injection, schedule: Q01DX009 (ip), vehicle: saline with Tween-80, evaluated on day 45) is 89 [9 of 10 alive], 102, 115, 118 % of control; the T/C (dose: 24.0 mg/kg/injection, schedule: Q01DX009 (ip), vehicle: saline with Tween-80, evaluated on day 60) is given as 118, 147, 224, 226, 235, 247 % of control. For the same compound, the survivor count runs as follows: (dose: 32.0 mg/kg/injection, schedule: Q01DX009 (ip), vehicle: saline with Tween-80) 10 of 10; (dose: 32.1 mg/kg/injection, schedule: Q01DX009 (ip), vehicle: saline with Tween-80) 5 of 6 and 6 of 6; (dose: 65.0 mg/kg/injection, schedule: Q01DX009 (ip), vehicle: saline with Tween-80) 6 of 6.

Turning to `O=C1CN(c2ccccc2)C(=O)C1C(=O)Nc1ccc(Cl)c(Cl)c1` (stereo unspecified), the T/C under setting [1] is 140 and 147 % of control. In addition, the survivor count under setting [2] is 6 of 6.

`CCOC(=O)CSc1sc(C(=O)OCC)c(N)c1C#N`: the survivor count is 6 of 6 under setting [7] and 6 of 6 under setting [8].

As for `O=c1c2ccccc2oc2cccc(NCCCN3CCN(CCCNc4cccc5oc6ccccc6c(=O)c45)CC3)c12`, the survivor count reads like this: (dose: 14.0 mg/kg/injection, schedule: Q01DX005 (ip), vehicle: saline with Tween-80) 6 of 6; (dose: 28.0 mg/kg/injection, schedule: Q01DX005 (ip), vehicle: saline with Tween-80) 6 of 6; (dose: 56.0 mg/kg/injection, schedule: Q01DX005 (ip), vehicle: saline with Tween-80) 6 of 6.

Take `COc1cc(/C=N/NS(=O)(=O)c2ccc(C)cc2)cc([N+](=O)[O-])c1O`: the survivor count (dose: 12.5 mg/kg/injection, schedule: Q01DX009 (ip), vehicle: other) is 6 of 6.

Take `Cc1cccc(C)c1NC1c2ccccc2C=Cc2ccccc21`: the survivor count under setting [8] is on record as 6 of 6.

With `Cc1cc(N(C)C)nc2cc(N)ccc12`, the survivor count runs as follows: under setting [7], 1 of 6; under setting [8], 0 of 6.

As for `O=[N+]([O-])c1ccc(Cl)c2c([N+](=O)[O-])cccc12`, the survivor count is, setting by setting: under setting [8], 4 of 6; (dose: 400.0 mg/kg/injection, schedule: Q01DX009 (ip), vehicle: saline with Tween-80) 1 of 6.

On to `[N-]=[N+]=Nc1cc(Cl)nnc1-c1ccccc1`, for which the survivor count is 3 of 6 (dose: 120.0 mg/kg/injection, schedule: Q01DX005 (ip), vehicle: Klucel (hydroxypropylcellulose) (HPC)) and 0 of 6 (dose: 240.0 mg/kg/injection, schedule: Q01DX005 (ip), vehicle: Klucel (hydroxypropylcellulose) (HPC)).

Take `C/C(=N\N=C(\[Se])N(C)C)c1ccccn1`: the survivor count runs as follows: (dose: 100.0 mg/kg/injection, schedule: Q04DX003 (ip), vehicle: saline with Tween-80) 4 of 6; (dose: 200.0 mg/kg/injection, schedule: Q04DX003 (ip), vehicle: saline with Tween-80) 1 of 6; (dose: 400.0 mg/kg/injection, schedule: Q04DX003 (ip), vehicle: saline with Tween-80) 0 of 6.

Turning to `COC(=O)c1n[nH]c(C(C)C)c1N=NN(C)C`, under setting [9], the T/C is 135 % of control and the survivor count is listed as 5 of 6. Moreover, the T/C (dose: 50.0 mg/kg/injection, schedule: Q01DX009 (ip), vehicle: saline) is 134 [5 of 6 alive] and 139 % of control.

With `CS(=O)(=O)c1nc2ccc(N3C(=O)c4ccccc4C3=O)cc2s1`, the survivor count under setting [3] is listed as 6 of 6.
